## Library screen at single concentrations

Amino acid sequences for entries named in this document (tags omitted). Residues count along the entry.
UniProt P9WPC5, whole entry: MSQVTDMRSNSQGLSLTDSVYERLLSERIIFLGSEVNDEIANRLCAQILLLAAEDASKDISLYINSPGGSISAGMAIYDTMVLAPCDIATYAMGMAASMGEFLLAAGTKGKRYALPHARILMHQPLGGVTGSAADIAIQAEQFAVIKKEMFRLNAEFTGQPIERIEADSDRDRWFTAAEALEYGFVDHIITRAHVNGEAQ
UniProt P9WPC3, whole entry partner: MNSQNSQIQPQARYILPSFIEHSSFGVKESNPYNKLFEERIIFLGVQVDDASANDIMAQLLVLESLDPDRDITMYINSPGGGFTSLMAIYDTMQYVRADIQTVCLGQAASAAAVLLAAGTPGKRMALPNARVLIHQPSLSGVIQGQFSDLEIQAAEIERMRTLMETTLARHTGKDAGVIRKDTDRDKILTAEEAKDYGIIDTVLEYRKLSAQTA
UniProt I6X8D2, whole entry: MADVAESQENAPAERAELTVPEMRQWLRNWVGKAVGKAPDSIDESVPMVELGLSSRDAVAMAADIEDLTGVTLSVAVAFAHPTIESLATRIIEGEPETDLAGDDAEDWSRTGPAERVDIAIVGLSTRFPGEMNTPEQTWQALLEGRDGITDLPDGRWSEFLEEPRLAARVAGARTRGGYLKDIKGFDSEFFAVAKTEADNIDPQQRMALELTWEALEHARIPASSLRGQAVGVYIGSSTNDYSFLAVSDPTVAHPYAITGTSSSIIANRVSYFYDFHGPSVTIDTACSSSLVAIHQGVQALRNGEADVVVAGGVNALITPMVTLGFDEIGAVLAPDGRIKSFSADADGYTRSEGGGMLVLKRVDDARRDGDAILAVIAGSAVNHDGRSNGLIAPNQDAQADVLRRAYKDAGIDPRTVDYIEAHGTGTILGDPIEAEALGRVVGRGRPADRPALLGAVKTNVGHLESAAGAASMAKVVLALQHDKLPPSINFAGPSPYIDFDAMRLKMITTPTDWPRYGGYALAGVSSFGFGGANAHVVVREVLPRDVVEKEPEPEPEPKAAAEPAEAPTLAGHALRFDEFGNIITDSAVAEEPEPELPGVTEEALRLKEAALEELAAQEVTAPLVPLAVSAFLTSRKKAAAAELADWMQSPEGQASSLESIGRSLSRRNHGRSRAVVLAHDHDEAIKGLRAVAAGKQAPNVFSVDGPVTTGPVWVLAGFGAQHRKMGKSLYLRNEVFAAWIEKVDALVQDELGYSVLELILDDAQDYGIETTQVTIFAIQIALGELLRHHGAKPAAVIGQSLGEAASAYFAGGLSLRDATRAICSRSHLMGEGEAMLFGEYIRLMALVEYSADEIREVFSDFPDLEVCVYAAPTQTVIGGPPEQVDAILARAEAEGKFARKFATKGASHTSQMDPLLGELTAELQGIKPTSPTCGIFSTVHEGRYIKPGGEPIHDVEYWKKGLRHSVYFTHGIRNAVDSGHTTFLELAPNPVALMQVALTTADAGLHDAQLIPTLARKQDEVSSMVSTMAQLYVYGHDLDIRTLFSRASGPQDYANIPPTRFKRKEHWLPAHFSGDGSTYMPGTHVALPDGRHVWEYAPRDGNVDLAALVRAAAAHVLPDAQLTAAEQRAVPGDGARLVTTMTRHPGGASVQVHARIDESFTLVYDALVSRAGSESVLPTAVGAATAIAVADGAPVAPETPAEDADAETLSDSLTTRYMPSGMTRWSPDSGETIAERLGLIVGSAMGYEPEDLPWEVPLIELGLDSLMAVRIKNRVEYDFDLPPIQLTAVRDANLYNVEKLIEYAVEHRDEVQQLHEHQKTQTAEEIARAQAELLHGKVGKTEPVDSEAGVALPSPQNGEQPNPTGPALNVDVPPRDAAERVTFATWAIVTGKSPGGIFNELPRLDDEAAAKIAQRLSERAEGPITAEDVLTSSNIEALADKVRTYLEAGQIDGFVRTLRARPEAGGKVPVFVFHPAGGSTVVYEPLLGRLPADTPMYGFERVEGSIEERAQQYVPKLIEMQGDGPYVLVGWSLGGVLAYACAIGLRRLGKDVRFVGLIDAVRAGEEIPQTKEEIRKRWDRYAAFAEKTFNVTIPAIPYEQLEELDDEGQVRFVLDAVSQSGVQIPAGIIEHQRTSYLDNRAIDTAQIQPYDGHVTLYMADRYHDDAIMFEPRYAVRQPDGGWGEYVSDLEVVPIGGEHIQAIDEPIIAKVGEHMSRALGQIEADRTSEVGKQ
UniProt P9WNZ1, whole entry: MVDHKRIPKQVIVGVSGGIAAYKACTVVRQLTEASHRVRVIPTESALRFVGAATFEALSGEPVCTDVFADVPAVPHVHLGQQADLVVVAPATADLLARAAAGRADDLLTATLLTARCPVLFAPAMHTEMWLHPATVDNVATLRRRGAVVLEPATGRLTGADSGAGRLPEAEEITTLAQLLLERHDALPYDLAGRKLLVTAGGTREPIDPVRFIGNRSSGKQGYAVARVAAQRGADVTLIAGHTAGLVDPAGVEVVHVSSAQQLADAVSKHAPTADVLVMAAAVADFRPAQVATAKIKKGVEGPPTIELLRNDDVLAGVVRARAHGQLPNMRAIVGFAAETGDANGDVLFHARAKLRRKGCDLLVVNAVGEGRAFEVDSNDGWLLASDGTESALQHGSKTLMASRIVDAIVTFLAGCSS
UniProt A4I591, 1-473: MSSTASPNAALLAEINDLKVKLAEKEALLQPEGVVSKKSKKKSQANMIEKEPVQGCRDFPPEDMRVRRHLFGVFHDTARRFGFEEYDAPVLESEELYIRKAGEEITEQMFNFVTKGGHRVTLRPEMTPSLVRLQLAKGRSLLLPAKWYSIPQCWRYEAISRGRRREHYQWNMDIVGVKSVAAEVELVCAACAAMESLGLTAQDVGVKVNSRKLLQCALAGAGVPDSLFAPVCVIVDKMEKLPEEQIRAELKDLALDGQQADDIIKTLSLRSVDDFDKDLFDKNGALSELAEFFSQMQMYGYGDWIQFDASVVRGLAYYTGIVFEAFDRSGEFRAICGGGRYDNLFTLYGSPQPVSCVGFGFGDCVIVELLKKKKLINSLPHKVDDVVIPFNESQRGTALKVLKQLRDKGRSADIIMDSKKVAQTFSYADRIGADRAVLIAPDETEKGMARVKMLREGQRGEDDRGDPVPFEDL
UniProt Q4DA54, 1-478: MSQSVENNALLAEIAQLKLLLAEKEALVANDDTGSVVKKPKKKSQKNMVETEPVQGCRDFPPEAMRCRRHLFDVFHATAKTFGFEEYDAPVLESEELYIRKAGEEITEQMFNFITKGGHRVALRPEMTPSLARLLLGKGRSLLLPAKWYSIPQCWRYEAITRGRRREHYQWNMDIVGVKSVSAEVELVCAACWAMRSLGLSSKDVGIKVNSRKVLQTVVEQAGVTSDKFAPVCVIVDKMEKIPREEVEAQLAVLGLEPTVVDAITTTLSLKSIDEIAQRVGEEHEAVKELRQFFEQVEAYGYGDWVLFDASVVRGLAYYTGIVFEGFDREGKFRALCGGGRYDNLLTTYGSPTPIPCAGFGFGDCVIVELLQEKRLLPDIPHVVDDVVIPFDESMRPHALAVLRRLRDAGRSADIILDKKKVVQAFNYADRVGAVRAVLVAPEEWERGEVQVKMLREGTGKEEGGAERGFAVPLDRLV

From ChEMBL document CHEMBL3988442, “University of Dundee, Small-Polar-MMV Screening Library” (2021).

The filed quantity is “Percent Effect” (%).
The record does not define 0% and 100%; most values in the screen are far below 50% and negative numbers occur (in some assays of this library far below -100).
Compounds were drawn at random from those tested, without regard to their results.
A dash means the value is not listed here; it may have been measured.

ClpP1P2: 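ClpP1P2, Mycobacterium tuberculosis (UniProt P9WPC5 and UniProt P9WPC3). Protease assay of ClpP1P2, read by the AMC dye that it sets free. Compounds at 50 µM. Higher reads as stronger inhibition, judged from the few compounds that gave an IC50. Most other retested compounds had strongly negative values. Size under these conditions: about 69,000 compounds, about 10 of them at 50% or above in at least one test.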
Pks13 thioesterase: 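Polyketide synthase Pks13, Mycobacterium tuberculosis (UniProt I6X8D2). Enzyme assay of the thioesterase domain of polyketide synthase 13; the read-out is not stated. Concentration: 30 µM. Higher reads as stronger inhibition (inferred from which compounds were picked for retests). Of about 67,000 compounds tested this way, about 300 (0.46%) reached 50% or more in at least one test.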
CoaBC: 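Enzyme assay of CoaBC with a phosphate dye (Biomol Green) read at 650 nm. Target: Coenzyme A biosynthesis protein CoaBC, Mycobacterium tuberculosis (UniProt P9WNZ1). Concentration: 30 µM. Higher reads as stronger inhibition, judged from the few compounds that gave an IC50. Most strong results did not repeat in a second test. Of about 67,000 compounds tested this way, about 40 (0.06%) reached 50% or more in at least one test.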
LiHisRS: 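Histidine-tRNA ligase, Leishmania infantum (UniProt A4I591). Enzyme assay of histidyl-tRNA synthetase; the read-out is not stated. Concentration: 30 µM. Higher reads as stronger inhibition (inferred: compounds with an IC50 in retests scored well above the rest). The assay is labelled LdHisRS but filed under L. infantum. Size under these conditions: about 69,000 compounds, about 410 of them at 50% or above in at least one test.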
TcHisRS: 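Histidine-tRNA ligase, Trypanosoma cruzi CL Brener (UniProt Q4DA54). Enzyme assay of histidyl-tRNA synthetase; the read-out is not stated. Compounds at 30 µM. Direction is inferred from retests: higher values go with stronger inhibition. Of about 69,000 compounds tested this way, about 31 (0.045%) reached 50% or more in at least one test.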

SMILES	ClpP1P2	Pks13 thioesterase	CoaBC	LiHisRS	TcHisRS
Cc1ccc(OC2(C(=O)O)CCN(C/C=C/c3ccco3)CC2)c(C)n1	-0.002004%	-12.4%	4.292%	16.39%	1.163%
c1csc(-c2nc(CN3CCn4c(nnc4C4CC4)C3)co2)c1	-5.381%	-14.29%	2.477%	12.16%	1.887%
CSCC[C@@H](CO)Nc1ccc(-c2nc(-c3ccccc3C)no2)cn1	3.815%	-7.337%	2.137%	-6.838%	-1.622%
COc1ccccc1CNCc1nn(-c2ccccc2)c2c1CCC2	-6.994%	-51.13%	-	38.03%	9.554%
O=C(Nc1cccc(F)c1)N1CCN(Cc2noc(C3CC3)n2)CC1	-2.059%	-33.8%	5.696%	22.08%	2.463%
COc1ccc(CCNC(=O)NCC(O)c2cccc(F)c2)cc1 (centres unmarked)	-11.54%	-19.92%	7.081%	7.018%	5.444%
CC(C)c1nnc2n1CCN(Cc1ccc3c(c1)OCCO3)C2	4.811%	-6.562%	16.22%	15%	4.348%
CCn1cc(S(=O)(=O)N2CCN(S(=O)(=O)c3ccc(Br)s3)CC2)cn1	-7.273%	-3.024%	2.427%	9.524%	5.941%
CS(=O)(=O)Cc1ccc(C(=O)NCC2Cc3ccccc3O2)cc1 (centres unmarked)	1.497%	-9.783%	4.401%	12.9%	4.124%
COC(=O)c1sc2nc3c(c(C(F)(F)F)c2c1N)CN(C(C)=O)CC3	-6.508%	-9.216%	-2.635%	11.86%	6.341%
Cc1cc(N(C)C)nc(N2CCn3c(nnc3C3CC3)C2)n1	3.283%	-8.333%	-0.6143%	3.101%	-1.19%
CC(C)c1cc(CNC(=O)N2CCC(Cc3cnn(C)c3)C2)on1 (centres unmarked)	-1.943%	-15.89%	-3.368%	2.128%	0%
Fc1ccc(-c2cc(NCCC3CCOC3)n3nccc3n2)cc1 (centres unmarked)	-4.51%	-3.867%	-3.498%	12.9%	1.571%
COc1cc(CN(C)C(=O)NCc2cccnc2OC)ccc1SC	-1.17%	-9.646%	-1.008%	9.091%	1.087%
CC(CN1CC[C@@H]2CCCC[C@@H]2C1)n1cnc2ccccc21 (some centres unmarked)	-9.756%	-3.802%	-7.547%	1.099%	-1.031%
O=C(NCc1ccco1)Nc1ccc2nc(N3CCOCC3)oc2c1	2.07%	3.803%	1.814%	14.52%	1.948%
COc1ccc(CC(=O)N2CCCC2Cn2cc(C)cn2)cc1OC (centres unmarked)	-22.63%	-16.18%	1.828%	4.425%	2.041%
CC(C)NC(=O)CCC(=O)N1CCC(c2noc3cc(F)ccc23)CC1	22.14%	-4.76%	2.663%	10.87%	9%
Cc1nc(O)cc(CNC(=O)CC[C@@H]2CCCN3CCCC[C@H]23)n1	-0.9776%	-2.371%	-3.086%	5.376%	-1.571%
CCN(C)c1ncnc2c1CCN(C(=O)[C@H]1CCCO1)CC2	-7.465%	-23.93%	1.142%	9.589%	1.98%
COc1ccc(C(=O)NS(=O)(=O)c2cccc(C#N)c2)cc1	-22.35%	-34.06%	1.405%	13.39%	1.156%
COCCNC(=O)C1CN(Cc2ccsc2)Cc2ccnn2C1 (centres unmarked)	-1.137%	-	-4.44%	21.05%	9.677%
OC(CN1CCN(Cc2cc(F)cc(F)c2)CC1)C1CC1 (centres unmarked)	-1.49%	-19.21%	-0.6242%	-4.959%	5.102%
CCS(=O)(=O)c1nccn1-c1cccc(F)c1	-6.245%	-6.324%	2.733%	6.349%	-0.5128%
CCc1cnc(N)nc1N1CCN(C(C)=O)CC1	2.45%	-20.07%	-3.2%	-15.38%	8.046%
CN(Cc1ccc2c(c1)OCO2)C(=O)c1ccn(C)c(=O)c1	-3.078%	-29.69%	2.479%	0%	0.5435%
CS(=O)(=O)NCCNC(=O)C1(c2cccc(Cl)c2)CC1	-5.334%	-3.822%	3.376%	22.12%	-1.626%
O=C(Cc1cccnc1)N1CCC2(CCN(CC3CCCCC3)C2)CC1	10.72%	-38.99%	-17.78%	23.29%	0%
Cc1nccn1-c1cccc(C2CCCN2S(=O)(=O)N(C)C)n1 (centres unmarked)	-3.762%	-	4.843%	17.14%	-4.301%
COc1ccc(CNc2c(C)nn(C(C)C)c2C)cc1OC	-8.399%	-3.71%	-3.421%	2.564%	6.18%
O=C(NCC(=O)N1CC2(CCCC2)c2c(F)cccc21)C1CC1	3.03%	-2.705%	-	9.167%	5.263%
Cc1noc(C)c1CN1CCc2ncc(CN(C)C)n2CC1	-2.99%	-10.53%	0.813%	17.65%	-1.961%
CCc1cc(C(F)(F)F)n2nc(C3CCCN3C(=O)COC)cc2n1 (centres unmarked)	-15.23%	3.775%	0.7884%	8.696%	9.848%